Laboratory results published in the supplement of paper PMC6411743.
± gives the standard deviation of the averaged measurements. The list shows a part of the results.

Protein sequences, listed by entry. Tags and fused reporters are not part of them. Lines headed by an entry give the natural chain unless they say otherwise; changes in a name come on top.
UniProt Q8N5W9: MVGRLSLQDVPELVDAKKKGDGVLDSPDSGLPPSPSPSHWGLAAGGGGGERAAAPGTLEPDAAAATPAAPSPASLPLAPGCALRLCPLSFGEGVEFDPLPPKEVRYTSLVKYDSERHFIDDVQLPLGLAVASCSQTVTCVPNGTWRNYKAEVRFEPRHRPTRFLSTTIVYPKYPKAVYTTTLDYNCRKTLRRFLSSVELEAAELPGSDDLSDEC
UniProt Q86XL3: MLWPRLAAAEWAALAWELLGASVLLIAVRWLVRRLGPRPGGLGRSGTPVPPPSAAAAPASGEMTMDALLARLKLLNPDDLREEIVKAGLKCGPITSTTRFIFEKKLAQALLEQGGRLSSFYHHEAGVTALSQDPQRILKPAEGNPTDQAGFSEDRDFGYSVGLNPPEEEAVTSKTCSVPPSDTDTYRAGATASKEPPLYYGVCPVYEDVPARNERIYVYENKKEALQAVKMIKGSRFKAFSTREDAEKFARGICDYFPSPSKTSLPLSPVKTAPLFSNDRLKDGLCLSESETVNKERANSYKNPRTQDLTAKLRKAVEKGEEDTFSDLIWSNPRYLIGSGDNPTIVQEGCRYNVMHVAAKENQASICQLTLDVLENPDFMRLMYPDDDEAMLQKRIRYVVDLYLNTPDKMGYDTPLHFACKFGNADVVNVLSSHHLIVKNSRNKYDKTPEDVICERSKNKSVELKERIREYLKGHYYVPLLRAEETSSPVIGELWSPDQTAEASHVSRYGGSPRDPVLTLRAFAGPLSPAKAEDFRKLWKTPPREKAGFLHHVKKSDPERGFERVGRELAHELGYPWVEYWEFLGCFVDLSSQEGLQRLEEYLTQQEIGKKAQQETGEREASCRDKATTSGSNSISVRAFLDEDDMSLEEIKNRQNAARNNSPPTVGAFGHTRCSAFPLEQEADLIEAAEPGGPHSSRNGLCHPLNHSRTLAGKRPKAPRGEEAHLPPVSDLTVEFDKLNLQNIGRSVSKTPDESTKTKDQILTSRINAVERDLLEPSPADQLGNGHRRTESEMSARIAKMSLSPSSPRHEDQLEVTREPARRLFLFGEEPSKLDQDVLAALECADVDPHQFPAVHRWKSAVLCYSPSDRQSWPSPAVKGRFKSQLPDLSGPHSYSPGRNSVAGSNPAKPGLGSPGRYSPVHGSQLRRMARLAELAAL
UniProt Q8TCT9: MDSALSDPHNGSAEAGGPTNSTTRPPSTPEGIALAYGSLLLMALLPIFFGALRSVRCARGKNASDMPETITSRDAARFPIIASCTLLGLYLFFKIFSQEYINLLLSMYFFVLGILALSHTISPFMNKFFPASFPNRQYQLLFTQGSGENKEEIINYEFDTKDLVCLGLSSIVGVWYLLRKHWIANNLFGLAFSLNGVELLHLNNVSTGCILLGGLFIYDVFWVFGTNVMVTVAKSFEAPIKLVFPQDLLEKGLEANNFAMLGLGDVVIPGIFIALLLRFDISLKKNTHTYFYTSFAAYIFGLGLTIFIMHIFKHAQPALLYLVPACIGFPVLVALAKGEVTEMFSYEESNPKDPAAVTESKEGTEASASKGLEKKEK
UniProt Q8NI37: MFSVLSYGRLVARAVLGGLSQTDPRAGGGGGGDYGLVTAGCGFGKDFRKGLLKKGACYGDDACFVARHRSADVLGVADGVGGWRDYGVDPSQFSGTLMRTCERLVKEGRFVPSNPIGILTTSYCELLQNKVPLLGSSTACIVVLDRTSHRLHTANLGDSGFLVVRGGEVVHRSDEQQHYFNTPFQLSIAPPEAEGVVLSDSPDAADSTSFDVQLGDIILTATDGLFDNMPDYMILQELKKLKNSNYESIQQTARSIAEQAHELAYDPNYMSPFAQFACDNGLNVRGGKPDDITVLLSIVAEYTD
UniProt Q8TD30: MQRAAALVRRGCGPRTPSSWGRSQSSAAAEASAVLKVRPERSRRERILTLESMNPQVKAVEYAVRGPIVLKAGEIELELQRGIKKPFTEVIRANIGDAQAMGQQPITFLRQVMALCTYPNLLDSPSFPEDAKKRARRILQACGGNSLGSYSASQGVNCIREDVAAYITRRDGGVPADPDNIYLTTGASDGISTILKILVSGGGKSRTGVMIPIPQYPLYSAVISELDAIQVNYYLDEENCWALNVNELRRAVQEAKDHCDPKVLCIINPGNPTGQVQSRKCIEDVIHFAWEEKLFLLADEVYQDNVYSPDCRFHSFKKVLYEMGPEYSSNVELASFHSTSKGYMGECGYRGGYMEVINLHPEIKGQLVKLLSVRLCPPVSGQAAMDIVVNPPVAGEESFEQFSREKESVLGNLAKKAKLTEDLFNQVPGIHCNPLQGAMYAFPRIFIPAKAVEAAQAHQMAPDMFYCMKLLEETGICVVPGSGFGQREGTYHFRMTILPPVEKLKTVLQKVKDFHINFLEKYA
UniProt Q8NBX0: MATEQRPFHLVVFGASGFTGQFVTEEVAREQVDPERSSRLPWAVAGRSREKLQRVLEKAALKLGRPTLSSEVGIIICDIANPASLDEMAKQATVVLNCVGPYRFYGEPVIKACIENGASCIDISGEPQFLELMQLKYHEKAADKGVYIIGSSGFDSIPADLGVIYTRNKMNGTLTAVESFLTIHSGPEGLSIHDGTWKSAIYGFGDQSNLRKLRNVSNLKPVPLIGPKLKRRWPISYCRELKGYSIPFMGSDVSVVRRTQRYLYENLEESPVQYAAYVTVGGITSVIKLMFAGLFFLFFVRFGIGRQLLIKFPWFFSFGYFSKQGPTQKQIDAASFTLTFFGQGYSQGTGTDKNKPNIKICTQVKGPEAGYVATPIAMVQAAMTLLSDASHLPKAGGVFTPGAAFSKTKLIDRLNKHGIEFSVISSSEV
UniProt Q8IYS2: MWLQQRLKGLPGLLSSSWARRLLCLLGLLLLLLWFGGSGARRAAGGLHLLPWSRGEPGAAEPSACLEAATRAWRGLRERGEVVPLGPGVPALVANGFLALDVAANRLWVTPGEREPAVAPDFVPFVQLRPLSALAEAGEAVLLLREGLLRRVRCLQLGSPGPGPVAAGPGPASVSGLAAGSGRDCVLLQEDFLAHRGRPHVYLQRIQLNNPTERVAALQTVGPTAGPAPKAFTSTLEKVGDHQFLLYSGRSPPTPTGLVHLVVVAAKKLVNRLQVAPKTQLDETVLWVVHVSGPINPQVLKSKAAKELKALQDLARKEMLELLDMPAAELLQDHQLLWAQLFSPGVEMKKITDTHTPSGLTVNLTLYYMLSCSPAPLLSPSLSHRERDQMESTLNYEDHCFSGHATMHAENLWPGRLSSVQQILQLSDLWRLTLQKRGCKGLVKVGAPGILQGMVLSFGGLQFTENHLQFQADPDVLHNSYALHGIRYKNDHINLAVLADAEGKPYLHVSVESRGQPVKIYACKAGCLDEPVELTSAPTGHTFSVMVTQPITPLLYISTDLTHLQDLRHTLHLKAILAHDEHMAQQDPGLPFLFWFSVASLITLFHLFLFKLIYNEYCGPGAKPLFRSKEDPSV
UniProt Q8TEA8: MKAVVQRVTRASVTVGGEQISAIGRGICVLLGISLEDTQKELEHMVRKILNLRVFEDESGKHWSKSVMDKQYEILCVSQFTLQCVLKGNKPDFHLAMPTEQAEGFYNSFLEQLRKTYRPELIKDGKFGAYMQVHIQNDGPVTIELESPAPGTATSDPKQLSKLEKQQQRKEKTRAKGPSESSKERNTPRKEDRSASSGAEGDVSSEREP
UniProt Q8NHV4, whole entry: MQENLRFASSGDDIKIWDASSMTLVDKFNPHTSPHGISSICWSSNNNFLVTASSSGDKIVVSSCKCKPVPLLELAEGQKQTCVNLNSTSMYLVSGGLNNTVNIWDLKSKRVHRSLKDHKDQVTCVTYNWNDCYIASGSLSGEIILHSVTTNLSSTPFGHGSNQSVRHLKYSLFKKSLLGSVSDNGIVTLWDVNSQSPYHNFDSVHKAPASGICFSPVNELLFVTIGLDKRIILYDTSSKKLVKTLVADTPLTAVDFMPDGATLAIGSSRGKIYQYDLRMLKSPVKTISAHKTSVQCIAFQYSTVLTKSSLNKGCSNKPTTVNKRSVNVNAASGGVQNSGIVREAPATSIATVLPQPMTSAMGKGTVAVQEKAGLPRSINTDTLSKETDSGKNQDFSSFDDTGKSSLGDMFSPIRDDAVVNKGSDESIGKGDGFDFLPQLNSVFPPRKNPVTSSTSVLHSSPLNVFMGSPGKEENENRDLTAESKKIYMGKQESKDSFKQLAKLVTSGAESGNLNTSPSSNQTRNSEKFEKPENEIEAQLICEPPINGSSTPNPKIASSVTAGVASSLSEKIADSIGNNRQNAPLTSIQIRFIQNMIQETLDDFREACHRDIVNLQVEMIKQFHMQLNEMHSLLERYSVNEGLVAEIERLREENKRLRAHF
UniProt Q8TAP9: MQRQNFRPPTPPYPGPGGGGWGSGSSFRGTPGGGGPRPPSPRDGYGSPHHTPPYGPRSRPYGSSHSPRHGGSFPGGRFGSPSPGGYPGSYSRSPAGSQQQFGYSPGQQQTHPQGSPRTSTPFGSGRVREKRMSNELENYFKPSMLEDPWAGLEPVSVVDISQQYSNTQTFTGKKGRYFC
UniProt Q8IZ40: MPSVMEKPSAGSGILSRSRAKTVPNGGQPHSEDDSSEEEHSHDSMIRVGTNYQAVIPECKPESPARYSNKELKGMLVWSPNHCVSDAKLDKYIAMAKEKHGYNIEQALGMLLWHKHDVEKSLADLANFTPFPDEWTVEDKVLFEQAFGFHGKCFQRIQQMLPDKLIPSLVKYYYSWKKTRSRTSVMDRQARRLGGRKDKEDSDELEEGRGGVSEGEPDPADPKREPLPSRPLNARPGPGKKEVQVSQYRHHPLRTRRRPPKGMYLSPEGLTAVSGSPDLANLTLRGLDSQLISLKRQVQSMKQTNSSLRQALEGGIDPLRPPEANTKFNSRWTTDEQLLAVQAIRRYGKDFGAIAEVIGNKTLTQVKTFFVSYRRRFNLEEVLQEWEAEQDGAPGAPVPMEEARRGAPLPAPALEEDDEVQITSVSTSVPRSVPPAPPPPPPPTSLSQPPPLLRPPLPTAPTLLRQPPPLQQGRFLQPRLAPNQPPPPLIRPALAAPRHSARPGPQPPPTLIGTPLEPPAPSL
UniProt Q8IUR7, whole entry: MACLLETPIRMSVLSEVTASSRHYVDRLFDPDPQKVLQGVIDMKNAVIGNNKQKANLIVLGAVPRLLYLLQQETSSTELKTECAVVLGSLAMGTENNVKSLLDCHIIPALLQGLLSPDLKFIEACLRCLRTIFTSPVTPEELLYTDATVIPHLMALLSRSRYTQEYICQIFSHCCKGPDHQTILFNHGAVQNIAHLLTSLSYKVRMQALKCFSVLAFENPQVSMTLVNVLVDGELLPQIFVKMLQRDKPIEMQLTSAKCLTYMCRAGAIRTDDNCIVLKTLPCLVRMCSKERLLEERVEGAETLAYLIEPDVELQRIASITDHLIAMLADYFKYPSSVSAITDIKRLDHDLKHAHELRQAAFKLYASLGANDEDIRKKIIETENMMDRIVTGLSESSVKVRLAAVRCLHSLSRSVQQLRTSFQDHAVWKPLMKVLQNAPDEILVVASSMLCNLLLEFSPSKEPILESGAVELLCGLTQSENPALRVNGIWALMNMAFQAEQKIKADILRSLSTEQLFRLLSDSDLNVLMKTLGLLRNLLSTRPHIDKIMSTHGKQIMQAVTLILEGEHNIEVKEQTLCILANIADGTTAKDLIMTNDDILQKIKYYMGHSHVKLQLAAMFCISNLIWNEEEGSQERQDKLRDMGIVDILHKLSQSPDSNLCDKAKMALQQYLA
UniProt Q8NB37: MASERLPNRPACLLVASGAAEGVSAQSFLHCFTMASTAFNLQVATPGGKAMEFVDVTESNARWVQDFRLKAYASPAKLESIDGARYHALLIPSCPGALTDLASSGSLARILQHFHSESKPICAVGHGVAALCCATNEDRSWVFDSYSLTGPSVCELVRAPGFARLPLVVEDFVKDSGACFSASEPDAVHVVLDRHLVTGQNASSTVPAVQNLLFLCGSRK
UniProt Q8TC07: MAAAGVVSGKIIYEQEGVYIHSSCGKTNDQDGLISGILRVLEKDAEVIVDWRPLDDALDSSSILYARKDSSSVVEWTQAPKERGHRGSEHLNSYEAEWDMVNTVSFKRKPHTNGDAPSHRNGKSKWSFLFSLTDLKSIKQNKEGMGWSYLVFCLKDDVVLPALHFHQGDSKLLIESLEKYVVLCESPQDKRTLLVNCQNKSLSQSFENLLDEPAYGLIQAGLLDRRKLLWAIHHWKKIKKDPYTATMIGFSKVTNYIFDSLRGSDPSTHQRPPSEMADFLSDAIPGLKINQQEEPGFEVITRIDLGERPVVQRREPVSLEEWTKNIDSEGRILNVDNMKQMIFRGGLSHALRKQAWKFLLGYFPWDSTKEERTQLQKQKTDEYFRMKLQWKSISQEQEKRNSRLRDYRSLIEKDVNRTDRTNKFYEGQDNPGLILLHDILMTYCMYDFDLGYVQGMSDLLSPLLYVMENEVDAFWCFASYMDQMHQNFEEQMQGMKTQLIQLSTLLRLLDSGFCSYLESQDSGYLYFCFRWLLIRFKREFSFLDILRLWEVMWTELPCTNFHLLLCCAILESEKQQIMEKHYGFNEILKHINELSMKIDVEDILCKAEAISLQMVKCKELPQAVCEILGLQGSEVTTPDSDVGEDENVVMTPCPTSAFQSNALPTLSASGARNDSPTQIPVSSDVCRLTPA

Compound: Nc1nc2c(ncn2[C@@H]2O[C@H](COP(=O)(O)OP(=O)(O)OP(=O)(O)O)[C@@H](O)[C@H]2O)c(=O)[nH]1 [guanosine triphosphate]
Test: NP40-soluble protein abundance relative to vehicle (solubility fold change) (ratio); higher = more soluble protein in presence of GTP
Method in brief: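 Jurkat crude lysate prepared with a Dounce homogeniser was treated at eight concentrations spanning 0.1 to 10 mM, 10 min at room temperature then 3 min at 37 °C. Solubilisation with 0.8% NP40 and benzonase and ultracentrifugation preceded TMT labelling of the supernatant for LC-MS/MS. Fold change against the detergent-processed vehicle was determined per replicate from vsn-normalised intensities, across three independent experiments.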

Target	NP40-soluble protein abundance (concentration: 0.1mM)	NP40-soluble protein abundance (concentration: 0.5mM)	NP40-soluble protein abundance (concentration: 1mM)	NP40-soluble protein abundance (concentration: 2mM)	NP40-soluble protein abundance (concentration: 4mM)	NP40-soluble protein abundance (concentration: 6mM)	NP40-soluble protein abundance (concentration: 8mM)	NP40-soluble protein abundance (concentration: 10mM)
RFLNB (UniProt Q8N5W9)	1.03 ± 0.09	1 ± 0.11	1.15 ± 0.21	1.06 ± 0.15	1.12 ± 0.091	1.11 ± 0.18	1.12 ± 0.036	1.2 ± 0.12
ZCRB1 (UniProt Q8TBF4)	1.05 ± 0.033	1.03 ± 0.062	1.08 ± 0.044	1.1 ± 0.039	1.03 ± 0.04	1.07 ± 0.11	1.12 ± 0.043	1.16 ± 0.02
UniProt Q8NBU5	0.983 ± 0.053	0.98 ± 0.023	0.924 ± 0.039	0.917 ± 0.07	0.858 ± 0.057	0.897 ± 0.027	0.894 ± 0.074	0.884 ± 0.073
UniProt Q86XL3 and related entries	1.01 ± 0.031	1 ± 0.033	1 ± 0.029	0.987 ± 0.021	0.999 ± 0.017	0.97 ± 0.0097	1 ± 0.016	0.991 ± 0.019
FBXO22 (UniProt Q8NEZ5)	1.02 ± 0.024	0.985 ± 0.053	0.91 ± 0.024	0.917 ± 0.078	0.947 ± 0.061	0.9 ± 0.053	0.865 ± 0.071	0.843 ± 0.1
UniProt Q8TCT9 and related entries	0.971 ± 0.029	0.9269 ± 0.0086	0.914 ± 0.017	0.919 ± 0.015	0.891 ± 0.011	0.874 ± 0.016	0.864 ± 0.018	0.878 ± 0.013
UniProt Q8TDN6	1.08 ± 0.11	1.1 ± 0.15	1.1 ± 0.094	1.21 ± 0.074	1.27 ± 0.1	1.32 ± 0.14	1.33 ± 0.17	1.5 ± 0.14
PPTC7 (UniProt Q8NI37)	0.997 ± 0.057	0.967 ± 0.0097	1.01 ± 0.078	0.932 ± 0.019	0.852 ± 0.024	0.888 ± 0.021	0.941 ± 0.023	0.95 ± 0.021
GPT2 (UniProt Q8TD30)	0.9993 ± 0.007	0.975 ± 0.034	0.958 ± 0.091	0.877 ± 0.076	0.895 ± 0.013	0.9177 ± 0.0053	0.866 ± 0.17	0.848 ± 0.032
UniProt Q8TEP8-3	1.01 ± 0.1	1.038 ± 0.0016	1.09 ± 0.019	1.1 ± 0.039	1.07 ± 0.018	1.06 ± 0.027	1.07 ± 0.059	1.03 ± 0.11
UniProt Q8IZ21 and related entries	1.12 ± 0.16	1.05 ± 0.029	1.03 ± 0.13	1.08 ± 0.15	1.03 ± 0.14	1.04 ± 0.07	1.05 ± 0.088	1.11 ± 0.066
TMEM102 (UniProt Q8N9M5)	0.897 ± 0.027	0.859 ± 0.13	0.873 ± 0.05	0.901 ± 0.1	0.92 ± 0.077	0.909 ± 0.071	0.849 ± 0.022	0.821 ± 0.059
UniProt Q8TDZ2 and related entries	1.01 ± 0.056	0.965 ± 0.069	0.946 ± 0.021	0.9475 ± 0.0091	0.9237 ± 0.0088	0.899 ± 0.019	0.921 ± 0.016	0.879 ± 0.058
UniProt Q8N6T7 and related entries	1.14 ± 0.076	1.07 ± 0.13	1.07 ± 0.06	1.11 ± 0.059	1.05 ± 0.078	1 ± 0.086	1.1 ± 0.086	1.12 ± 0.017
SCCPDH (UniProt Q8NBX0)	0.943 ± 0.025	0.967 ± 0.042	0.912 ± 0.031	0.868 ± 0.054	0.873 ± 0.016	0.878 ± 0.022	0.849 ± 0.011	0.813 ± 0.043
UniProt Q8N3U4-2|Q8N3U4 and related entries	1.09 ± 0.031	1.11 ± 0.065	0.978 ± 0.067	1.03 ± 0.13	1.02 ± 0.075	0.998 ± 0.11	0.985 ± 0.036	0.913 ± 0.071
UniProt Q8IW41 and related entries	1.09 ± 0.062	1.12 ± 0.045	1.04 ± 0.13	1.04 ± 0.015	0.943 ± 0.014	0.92 ± 0.11	0.897 ± 0.086	0.9015 ± 0.0035
UniProt Q8IYS2 and related entries	1.14 ± 0.035	1.08 ± 0.065	1 ± 0.031	1.03 ± 0.087	0.959 ± 0.062	0.997 ± 0.069	0.996 ± 0.013	0.945 ± 0.021
UniProt Q8TEA8 and related entries	0.932 ± 0.048	0.949 ± 0.066	0.888 ± 0.015	0.904 ± 0.047	0.84 ± 0.022	0.893 ± 0.063	0.8855 ± 0.0087	0.875 ± 0.045
UniProt Q8NHV4 and related entries	0.976 ± 0.041	1.03 ± 0.066	1.01 ± 0.046	1.07 ± 0.028	1.01 ± 0.072	1.1 ± 0.017	1.07 ± 0.081	1.13 ± 0.069
UniProt Q8TAP9	0.932 ± 0.08	0.93 ± 0.11	1.07 ± 0.075	1.04 ± 0.17	0.916 ± 0.12	1.04 ± 0.2	1.03 ± 0.065	1.11 ± 0.23
CHD6 (UniProt Q8TD26)	1.08 ± 0.043	1.07 ± 0.094	0.953 ± 0.03	1.03 ± 0.17	1.06 ± 0.15	0.981 ± 0.1	0.952 ± 0.024	0.94 ± 0.051
RCOR2 (UniProt Q8IZ40)	0.9379 ± 0.0074	0.959 ± 0.067	1.03 ± 0.04	1.01 ± 0.037	1.06 ± 0.02	1.04 ± 0.093	1.114 ± 0.01	1.106 ± 0.0057
EXOC8 (UniProt Q8IYI6)	0.997 ± 0.04	0.996 ± 0.06	0.976 ± 0.053	0.958 ± 0.039	0.957 ± 0.049	0.949 ± 0.042	0.971 ± 0.016	0.963 ± 0.053
CMAS (UniProt Q8NFW8)	1.03 ± 0.029	1.05 ± 0.048	1.041 ± 0.01	1.1 ± 0.041	1.16 ± 0.052	1.18 ± 0.039	1.2 ± 0.038	1.21 ± 0.06
HOMER1 (UniProt Q86YM7)	1.05 ± 0.24	0.912 ± 0.11	1.05 ± 0.16	0.997 ± 0.052	1.1 ± 0.14	0.945 ± 0.16	1.01 ± 0.22	1.06 ± 0.16
UniProt Q8IUR7 and related entries	1.06 ± 0.05	1.06 ± 0.11	1.09 ± 0.14	1.13 ± 0.17	1.17 ± 0.2	1.16 ± 0.21	1.18 ± 0.27	1.11 ± 0.18
UniProt Q8NB37 and related entries	0.992 ± 0.051	0.938 ± 0.041	0.981 ± 0.038	0.941 ± 0.043	0.981 ± 0.025	0.924 ± 0.017	0.885 ± 0.021	0.904 ± 0.031
UniProt Q8TC07 and related entries	1.06 ± 0.019	1.04 ± 0.05	0.995 ± 0.012	0.984 ± 0.046	0.994 ± 0.011	0.965 ± 0.014	0.961 ± 0.03	0.904 ± 0.037
UniProt Q8WU10 and related entries	1.07 ± 0.1	1.05 ± 0.071	0.971 ± 0.07	1.01 ± 0.096	1.03 ± 0.075	1.01 ± 0.048	1 ± 0.02	0.967 ± 0.12

Reformatted comma-delimited: part of the list above.
Target,NP40-soluble protein abundance (concentration: 0.1mM),NP40-soluble protein abundance (concentration: 0.5mM),NP40-soluble protein abundance (concentration: 1mM),NP40-soluble protein abundance (concentration: 2mM),NP40-soluble protein abundance (concentration: 4mM),NP40-soluble protein abundance (concentration: 6mM),NP40-soluble protein abundance (concentration: 8mM),NP40-soluble protein abundance (concentration: 10mM)
RFLNB (UniProt Q8N5W9),1.03 ± 0.09,1 ± 0.11,1.15 ± 0.21,1.06 ± 0.15,1.12 ± 0.091,1.11 ± 0.18,1.12 ± 0.036,1.2 ± 0.12
ZCRB1 (UniProt Q8TBF4),1.05 ± 0.033,1.03 ± 0.062,1.08 ± 0.044,1.1 ± 0.039,1.03 ± 0.04,1.07 ± 0.11,1.12 ± 0.043,1.16 ± 0.02
UniProt Q8TCT9 and related entries,0.971 ± 0.029,0.9269 ± 0.0086,0.914 ± 0.017,0.919 ± 0.015,0.891 ± 0.011,0.874 ± 0.016,0.864 ± 0.018,0.878 ± 0.013
GPT2 (UniProt Q8TD30),0.9993 ± 0.007,0.975 ± 0.034,0.958 ± 0.091,0.877 ± 0.076,0.895 ± 0.013,0.9177 ± 0.0053,0.866 ± 0.17,0.848 ± 0.032
UniProt Q8N6T7 and related entries,1.14 ± 0.076,1.07 ± 0.13,1.07 ± 0.06,1.11 ± 0.059,1.05 ± 0.078,1 ± 0.086,1.1 ± 0.086,1.12 ± 0.017
CHD6 (UniProt Q8TD26),1.08 ± 0.043,1.07 ± 0.094,0.953 ± 0.03,1.03 ± 0.17,1.06 ± 0.15,0.981 ± 0.1,0.952 ± 0.024,0.94 ± 0.051
RCOR2 (UniProt Q8IZ40),0.9379 ± 0.0074,0.959 ± 0.067,1.03 ± 0.04,1.01 ± 0.037,1.06 ± 0.02,1.04 ± 0.093,1.114 ± 0.01,1.106 ± 0.0057
EXOC8 (UniProt Q8IYI6),0.997 ± 0.04,0.996 ± 0.06,0.976 ± 0.053,0.958 ± 0.039,0.957 ± 0.049,0.949 ± 0.042,0.971 ± 0.016,0.963 ± 0.053
